# From PubChem BioAssay AID2551 (National Center for Advancing Translational Sciences (NCATS), 2010)
# Chains of the proteins cited; added tags and fusions are not shown. Lines headed by an entry give the natural chain unless they say otherwise; changes in a name come on top.
# UniProt P51450: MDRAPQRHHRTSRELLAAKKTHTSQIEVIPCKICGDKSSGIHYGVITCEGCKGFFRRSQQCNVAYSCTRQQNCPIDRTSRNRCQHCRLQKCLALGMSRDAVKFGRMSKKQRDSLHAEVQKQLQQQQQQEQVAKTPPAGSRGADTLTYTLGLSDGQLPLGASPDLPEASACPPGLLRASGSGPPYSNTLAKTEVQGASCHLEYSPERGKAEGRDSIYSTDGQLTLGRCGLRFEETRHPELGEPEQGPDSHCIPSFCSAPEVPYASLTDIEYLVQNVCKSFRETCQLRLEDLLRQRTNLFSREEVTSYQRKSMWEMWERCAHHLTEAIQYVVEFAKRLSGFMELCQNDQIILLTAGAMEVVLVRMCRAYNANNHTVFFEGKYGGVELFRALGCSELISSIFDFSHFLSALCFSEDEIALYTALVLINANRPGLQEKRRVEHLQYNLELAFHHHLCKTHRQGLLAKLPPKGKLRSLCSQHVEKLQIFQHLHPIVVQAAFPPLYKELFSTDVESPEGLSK
# Values joined by “and” are separate entries in the source; they are usually repeats but may differ in a detail not shown here. Identical values can stand only once. Screen size: about 310,000 compounds; about 17,000 (5.5%) were called active. Inconclusive means that the source gave no clear call. Such entries were picked first, then a sample of the others. The call rests on the fitted dose curve; in most records, active means well fitted inhibition curve with a large enough effect; inconclusive means small, poorly fitted or top-dose-only effect, or effect the other way; inactive means no such curve, though single readings can be large or run the other way. Potencies beside an inconclusive call are fits to weak or partial responses and may not hold up.
# Biological target: Nuclear receptor ROR-gamma (Mus musculus) (UniProt P51450)
# Assay: qHTS for inhibitors of ROR gamma transcriptional activity; further: nearly all actives have a fitted effect of over 60% in size
# Conditions: Drosophila S2 Gal4-RORgamma UAS-luciferase reporter, 20 h; activity change, negative = inhibition: at 53.6 µM (top of the series)
# In short: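 In this cell-based reporter format, copper sulfate (700 uM final) drives Gal4–ROR gamma fusion expression from a metallothionein promoter in Drosophila Schneider cells; compounds preincubated 1 hr, reporter read after 20 hr at ambient temperature.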
# On the % scale 0 is the no-effect control and ±100 the full control effect; potency means the concentration at half of the fitted maximal effect.
SMILES,Potency,"activity change, negative = inhibition"
COc1ccc(OC)c(S(=O)(=O)N/N=C\c2c[nH]c3ccccc23)c1,"inconclusive: 35.5 µM [activator, single point]",
Nc1nonc1-n1nnc(C(=O)N/N=C/c2ccco2)c1-c1ccccc1,"inconclusive: 35.5 µM [inhibitor, single point]",
S=C(NCc1ccco1)Nc1ccc(Br)cc1Cl,active: 12.6 µM,
O=C(O)c1ccc2c(=O)n3c(nc2c1)/C(=C/c1cccc(Cl)c1Cl)CC3,"inconclusive: 35.5 µM [activator, single point]",
O=C(Nc1cccc([N+](=O)[O-])c1)C1C2CCCCC21 (configuration not stated),"inconclusive: 14.1 µM [activator, single point]",
Oc1c(Cl)cc(Cl)cc1Sc1cc(Cl)cc(Cl)c1O,"inactive and inconclusive: 11.2 µM [inhibitor, single point] and inconclusive: 31.6 µM [inhibitor, single point]",
CN(Cc1ccccc1)C(=O)c1cccc(N2C(=O)NC3CC2(C)Oc2ccccc23)c1 (configuration not stated),"inconclusive: 14.1 µM [activator, single point]",
CCOc1cc(-c2nc(C)c(C(C)=O)n2O)ccc1OCC(=O)Nc1ccccc1,"inconclusive: 35.5 µM [activator, single point]",
Cc1cc(=O)oc(C)c1C(=O)n1nc(C)c2c1C[C@@H]1[C@H]2C1(C)C,"inconclusive: 3.16 µM [inhibitor, single point]",
CN=c1scc(-c2cccs2)n1/N=C/c1ccc(O)c(O)c1O,active: 1.12 µM,
O=C(NCc1ccncc1)c1nc(-c2ccc(C(F)(F)F)cc2)no1,"inconclusive: 35.5 µM [inhibitor, single point]",
O=S(=O)(Cc1ccccc1Cl)Nc1ccccn1,"inconclusive: 5.01 µM [inhibitor, single point]",
CCc1ccc(CCC(=O)Nc2ncc(Cc3ccccc3Cl)s2)o1,"inconclusive: 12.6 µM [inhibitor, partial curve]",
Cn1c(C(=O)N2CCN(c3cccc(C(F)(F)F)c3)CC2)cc2sccc21,"inconclusive: 14.1 µM [activator, single point]",
CCN(CC)CC(=O)Nc1ccc(C)cc1C(=O)c1ccccc1,,inactive: -1.01%
CCCC(=O)Nc1cc(-c2nc3ncccc3o2)ccc1Cl,"inconclusive: 2.82 µM [inhibitor, full curve, poor fit]",
CCOC(=O)c1cc(C)sc1NC(=O)C(c1ccccc1)c1ccccc1,"inconclusive: 5.01 µM [activator, partial curve]",
O=C(NNC(=S)Nc1ccc(F)cc1)c1ccccc1OC(F)F,active: 2.82 µM,
O=c1nc(N(c2ccccc2)c2ccccc2)[nH]c(=O)[nH]1,"inconclusive: 35.5 µM [activator, single point]",
O=C(Nc1ccc2c(c1)OCCO2)C1c2ccccc2C(=O)N2CCc3ccccc3C12 (configuration not stated),"inconclusive: 35.5 µM [inhibitor, single point]",
Cc1nnc(NC(=O)CSc2nnc3ncccn23)s1,,inactive: 32.6%
O=C(CCCOc1ccccc1)Nc1nc2ccccc2[nH]1,active: 7.08 µM,
Fc1ccc(NC(=S)Nc2ccc(F)c(Cl)c2)cc1Cl,active: 1.78 µM,
O=C(Nc1ccncc1)c1ccc(Cl)c(Cl)c1,"inconclusive: 10 µM [activator, partial curve]",

SMILES,Potency,"activity change, negative = inhibition"
CN(C)/N=C/c1cc(Cl)cc([N+](=O)[O-])c1O,active: 11.2 µM,
CCCCOc1cccc(C(=O)Nc2ccc(NC(=O)c3cccs3)cc2)c1,"inconclusive: 12.6 µM [inhibitor, single point]",
O=C(NCc1ccccc1Cl)c1cccc(NC(=O)c2ccccc2)c1,,inactive: 21.7%
COc1cnc(-c2ccccn2)nc1Sc1ccccc1,active: 2.51 µM,
O=C(NC(=S)Nc1cccnc1Cl)c1ccc(F)cc1,"inconclusive: 15.8 µM [inhibitor, single point]",
O=[N+]([O-])c1cc(S(=O)(=O)C(F)(F)F)ccc1NCC1CCCO1 (configuration not stated),"inconclusive: 35.5 µM [activator, single point]",
COC(=O)C(CC(=O)O)NCc1ccco1 (configuration not stated),,inactive: 3.81%
CSc1cccc(NC(=O)/C=C/c2ccc(Cl)cc2)c1,"inconclusive: 11.2 µM [activator, partial curve]",
COc1cc(/C=C2\N=C3CCCCCN3C2=O)ccc1O,,inactive: 12.7%
CCCSc1ccc(-c2nn(-c3ccccc3)cc2/C=C(/C#N)C(=O)N2CCOCC2)cc1,"inconclusive: 11.2 µM [activator, partial curve]",
N#CC1=C(N)Oc2n[nH]c(-c3ccccn3)c2C1c1c(F)cccc1Cl (configuration not stated),active: 3.16 µM,
COc1ccccc1NC(=O)c1ccc(Cl)c(S(=O)(=O)N2CCCCC2)c1,,inactive: 4.06%
COc1ccc(C(CNC(=O)c2ccc(S(=O)(=O)N3CCOCC3)cc2)N2CCCCC2)cc1 (configuration not stated),"inconclusive: 0.112 µM [inhibitor, full curve, poor fit]",
Cc1cc(C)c(S(=O)(=O)Nn2cnnc2)c(C)c1,,inactive: -18.6%
Cn1cc(S(=O)(=O)N2CCCC2)cc1C(=O)NCc1ccc(F)cc1,"inconclusive: 5.01 µM [activator, partial curve]",
COc1ccc(NC(=O)NCCCN2CCN(c3cc(C)ccc3C)CC2)cc1,,inactive: 1.75%
CC1(C)CC(OC(=O)c2ccccc2)CC(C)(C)N1,"inconclusive: 0.631 µM [inhibitor, single point]",
COc1ccccc1N1C(=S)N=C(Nc2c(C)cccc2C)C12CCCC2,active: 7.94 µM,
CCOc1ccc(C(=O)NC(=S)Nc2ccc(N3CCC(C)CC3)cc2)cc1[N+](=O)[O-],active: 0.398 µM,
COc1cc2[nH]c(=O)n(CCC(=O)N3CCN(Cc4ccccc4)CC3)c(=O)c2cc1OC,,inactive: -1.93%
COc1cccc(NC(=O)Nc2ccc3c(c2)nc(C)n3C)c1,active: 8.91 µM,
Cn1ncc2c(Nc3ccccc3Cl)nc(Nc3ccccc3Cl)nc21,,inactive: -18.1%
CCOC(=O)c1cnn(-c2nc(SC)nc3sc4c(c23)CCC4)c1N,"inconclusive: 3.55 µM [activator, full curve, poor fit]",
COc1ccccc1NC(=O)c1c(N=Cc2cccc([N+](=O)[O-])c2)cnn1C,,inactive: -6.17%

SMILES,Potency,"activity change, negative = inhibition"
Cc1nn(CCC(=O)NNC(=S)Nc2ccc(Cl)cc2)c(C)c1[N+](=O)[O-],"inconclusive: 5.62 µM [inhibitor, single point]",
Cc1ccc(Oc2ncc(CN3CCOCC3)s2)cc1,"inconclusive: 2.51 µM [activator, partial curve]",
O=C(CSc1nnnn1-c1ccc2c(c1)CCC2)NCc1cccs1,"inconclusive: 35.5 µM [activator, single point]",
O=C(N/N=C/CCc1ccccc1)c1ccccc1,"inconclusive: 11.2 µM [inhibitor, single point]",
C/C(CCC(=O)OC[C@H]1O[C@H](C#Cc2ccccc2)C=C[C@@H]1Oc1ccc(C)cc1)=N\O[C@@H](C)CN1CCCCc2nc(C)c(C)cc21,"inconclusive: 35.5 µM [activator, single point]",
CCC1(C)Cc2c(sc(NC(=S)NC(=O)c3ccccc3)c2C#N)CO1 (configuration not stated),"inconclusive: 2.51 µM [inhibitor, full curve]",
Cc1cc(C)cc(NC(=O)c2ccc(Cn3nc(C)c(Cl)c3C)o2)c1,"inconclusive: 7.94 µM [activator, partial curve, poor fit]",
O=C1Nc2ccc([N+](=O)[O-])cc2C1=Nc1cccc(CO)c1,"inconclusive: 22.4 µM [inhibitor, single point]",
Cc1cc(C(=O)N2CCc3ccccc3C2)no1,"inconclusive: 10 µM [activator, single point]",
Cn1c(COc2ccccc2)nc2ccccc21,"inconclusive: 35.5 µM [inhibitor, single point]",
CCCCCCCCCCCCOC(=O)C[N+](C)(C)C,"inconclusive: 12.6 µM [activator, partial curve, poor fit]",
O=C(NC(=S)N1CCN(C/C=C/c2ccccc2)CC1)c1cccnc1,active: 0.398 µM,
COc1ccc(CCCc2nnc(SCc3nc4ccccc4c(=O)[nH]3)n2C)cc1C,,inactive: 33%
Cc1cc(C)c(S(N)(=O)=O)c(C)c1-n1cnnn1,active: 8.91 µM,
COC(=O)CC1(C(=O)OC)Oc2ccc(Br)cc2C(=O)N1c1cc(Cl)c(Cl)cc1Cl (configuration not stated),"inconclusive: 11.2 µM [activator, partial curve]",
Cc1cc(OCC(=O)N(C(C)C)C(C)C)ccc1Cl,active: 1.58 µM,
COc1ccc(/C=C(\NC(=O)c2ccc(OC)cc2)C(=O)Nc2ccc(C(=O)O)cc2)cc1,,inactive: 18.7%
O=C1CCCN2N=C(SCC(=O)Nc3cccc(F)c3)SC2=N1,"inconclusive: 11.2 µM [activator, partial curve]",
Cc1ccc(C(=O)N/C(=C/c2cccnc2)C(=O)N2CCCCCC2)cc1,"inconclusive: 14.1 µM [activator, single point]",
Cc1ccc(C)c(N)c1,,inactive: 3.2%
Nc1cccc(Nc2nc(OC(C(F)(F)F)C(F)(F)F)nc(OC(C(F)(F)F)C(F)(F)F)n2)c1,"inconclusive: 35.5 µM [activator, single point]",
COc1ccc(/C=N/NC(=O)c2ccc(O)cc2O)cc1CSc1ccccn1,active: 0.0891 µM,
COCCCC1CCN(C(=O)CCc2nnc(CCCCc3ccccc3)o2)CC1,"inconclusive: 11.2 µM [activator, single point]",
O=C(COC(=O)c1cc(-c2cccs2)nn1-c1ccccc1)Nc1ccc(Cl)c([N+](=O)[O-])c1,"inconclusive: 14.1 µM [activator, partial curve]",
